Results taken from patent US20060247419A1, “Translocation dependent complementation for drug screening” (BioImage A/S, priority 2002, published 2006).
Results are given in words; binding and its absence hold for the method and conditions named. Some binding calls cover weakened binding; strength is not graded here.

Molecular target: CZ-CtermEYFP158 (Aequorea victoria)
Test: split-EYFP fluorescence complementation, co-transfected CHO-hIR cells, microscopy

B1: NtermEYFP157-NZ (protein)
chain: MVSKGEELFTGVVPILVELDGDVNGHKFSVSGEGEGDATYGKLTLKFICTTGKLPVPWPTLVTTFGYGLQCFARYPDHMKQHDFFKSAMPEGYVQERTIFFKDDGNYKTRAEVKFEGDTLVNRIELKGIDFKEDGNILGHKLEYNYNSHNVYIMADKGGTGSGALKKELQANKKELAQLKWELQALKKELAQ
B1 was tested, and the binding was “binds”.
